# Test results published in the supplement of paper PMC8728848.
# The list shows a part of the results.
# Assays:
# Assay in all cases: glycan array binding signal (z-score within array); higher = stronger binding
# Details in all cases: glycan notation: IUPAC condensed, linker removed
# [1] = target: GlcNAc(b1-3)Gal(b1-3)GalNAc
# Method in brief: (§1)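 The binding signal is a Z-score computed within each array and averaged over linkers. Arrays of the same protein sequence at different concentrations or buffers were also averaged together. Data originate from 3228 arrays in the Consortium for Functional Glycomics database, kept only where the protein sequence was available.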
# GlcNAc(b1-3)Gal(b1-4)Glc = target: GlcNAc(b1-3)Gal(b1-4)Glc
# Method in brief: as §1
# [2] = target: GlcNAc(b1-3)Gal(b1-4)GlcNAc
# Method in brief: as §1
# [3] = target: GlcNAc(b1-3)Gal(b1-4)GlcNAc(b1-2)Man(a1-3)[GlcNAc(b1-3)Gal(b1-4)GlcNAc(b1-2)Man(a1-6)]Man(b1-4)GlcNAc(b1-4)GlcNAc
# Method in brief: as §1
# [4] = target: GlcNAc(b1-3)Gal(b1-4)GlcNAc(b1-2)Man(a1-3)[GlcNAc(b1-3)Gal(b1-4)GlcNAc(b1-2)Man(a1-6)]Man(b1-4)GlcNAc(b1-4)[Fuc(a1-6)]GlcNAc
# Method in brief: as §1
# [5] = target: GlcNAc(b1-3)Gal(b1-4)GlcNAc(b1-2)[GlcNAc(b1-3)Gal(b1-4)GlcNAc(b1-6)]Man(a1-6)[GlcNAc(b1-3)Gal(b1-4)GlcNAc(b1-2)Man(a1-3)]Man(b1-4)GlcNAc(b1-4)GlcNAc
# Method in brief: as §1
# [6] = target: GlcNAc(b1-3)Gal(b1-4)GlcNAc(b1-3)Gal(b1-4)GlcNAc
# Method in brief: as §1
# [7] = target: GlcNAc(b1-3)Gal(b1-4)GlcNAc(b1-3)Gal(b1-4)GlcNAc(b1-2)Man(a1-3)[GlcNAc(b1-3)Gal(b1-4)GlcNAc(b1-3)Gal(b1-4)GlcNAc(b1-2)Man(a1-6)]Man(b1-4)GlcNAc(b1-4)GlcNAc
# Method in brief: as §1
# [8] = target: GlcNAc(b1-3)Gal(b1-4)GlcNAc(b1-3)Gal(b1-4)GlcNAc(b1-2)Man(a1-3)[GlcNAc(b1-3)Gal(b1-4)GlcNAc(b1-3)Gal(b1-4)GlcNAc(b1-2)Man(a1-6)]Man(b1-4)GlcNAc(b1-4)[Fuc(a1-6)]GlcNAc
# Method in brief: as §1
# [9] = target: GlcNAc(b1-3)Gal(b1-4)GlcNAc(b1-3)Gal(b1-4)GlcNAc(b1-2)[GlcNAc(b1-3)Gal(b1-4)GlcNAc(b1-3)Gal(b1-4)GlcNAc(b1-6)]Man(a1-6)[GlcNAc(b1-3)Gal(b1-4)GlcNAc(b1-3)Gal(b1-4)GlcNAc(b1-2)Man(a1-3)]Man(b1-4)GlcNAc(b1-4)[Fuc(a1-6)]GlcNAc
# Method in brief: as §1
# [10] = target: GlcNAc(b1-3)Gal(b1-4)GlcNAc(b1-3)Gal(b1-4)GlcNAc(b1-3)Gal(b1-4)GlcNAc(b1-2)Man(a1-3)[GlcNAc(b1-3)Gal(b1-4)GlcNAc(b1-3)Gal(b1-4)GlcNAc(b1-3)Gal(b1-4)GlcNAc(b1-2)Man(a1-6)]Man(b1-4)GlcNAc(b1-4)GlcNAc
# Method in brief: as §1
# [11] = target: GlcNAc(b1-3)Gal(b1-4)GlcNAc(b1-3)Gal(b1-4)GlcNAc(b1-3)Gal(b1-4)GlcNAc(b1-2)Man(a1-3)[GlcNAc(b1-3)Gal(b1-4)GlcNAc(b1-3)Gal(b1-4)GlcNAc(b1-3)Gal(b1-4)GlcNAc(b1-2)Man(a1-6)]Man(b1-4)GlcNAc(b1-4)[Fuc(a1-6)]GlcNAc
# Method in brief: as §1
# [12] = target: GlcNAc(b1-3)Gal(b1-4)GlcNAc(b1-3)Gal(b1-4)GlcNAc(b1-3)Gal(b1-4)GlcNAc(b1-2)[GlcNAc(b1-3)Gal(b1-4)GlcNAc(b1-3)Gal(b1-4)GlcNAc(b1-3)Gal(b1-4)GlcNAc(b1-6)]Man(a1-6)[GlcNAc(b1-3)Gal(b1-4)GlcNAc(b1-3)Gal(b1-4)GlcNAc(b1-3)Gal(b1-4)GlcNAc(b1-2)Man(a1-3)]Man(b1-4)GlcNAc(b1-4)[Fuc(a1-6)]GlcNAc
# Method in brief: as §1
# [13] = target: GlcNAc(b1-3)Gal(b1-4)GlcNAc(b1-3)Gal(b1-4)GlcNAc(b1-3)Gal(b1-4)GlcNAc(b1-3)Gal(b1-4)GlcNAc(b1-2)Man(a1-3)[GlcNAc(b1-3)Gal(b1-4)GlcNAc(b1-3)Gal(b1-4)GlcNAc(b1-3)Gal(b1-4)GlcNAc(b1-3)Gal(b1-4)GlcNAc(b1-2)Man(a1-6)]Man(b1-4)GlcNAc(b1-4)GlcNAc
# Method in brief: as §1
# [14] = target: GlcNAc(b1-3)Gal(b1-4)GlcNAc(b1-3)Gal(b1-4)GlcNAc(b1-3)Gal(b1-4)GlcNAc(b1-3)Gal(b1-4)GlcNAc(b1-2)Man(a1-3)[GlcNAc(b1-3)Gal(b1-4)GlcNAc(b1-3)Gal(b1-4)GlcNAc(b1-3)Gal(b1-4)GlcNAc(b1-3)Gal(b1-4)GlcNAc(b1-2)Man(a1-6)]Man(b1-4)GlcNAc(b1-4)[Fuc(a1-6)]GlcNAc
# Method in brief: as §1
# [15] = target: GlcNAc(b1-3)Gal(b1-4)GlcNAc(b1-3)Gal(b1-4)GlcNAc(b1-3)Gal(b1-4)GlcNAc(b1-3)Gal(b1-4)GlcNAc(b1-2)[GlcNAc(b1-3)Gal(b1-4)GlcNAc(b1-3)Gal(b1-4)GlcNAc(b1-3)Gal(b1-4)GlcNAc(b1-3)Gal(b1-4)GlcNAc(b1-6)]Man(a1-6)[GlcNAc(b1-3)Gal(b1-4)GlcNAc(b1-3)Gal(b1-4)GlcNAc(b1-3)Gal(b1-4)GlcNAc(b1-3)Gal(b1-4)GlcNAc(b1-2)Man(a1-3)]Man(b1-4)GlcNAc(b1-4)[Fuc(a1-6)]GlcNAc
# Method in brief: as §1
# [16] = target: GlcNAc(b1-3)Gal(b1-4)GlcNAc(b1-3)Gal(b1-4)GlcNAc(b1-3)GalNAc
# Method in brief: as §1
# [17] = target: GlcNAc(b1-3)Gal(b1-4)GlcNAc(b1-3)GalNAc
# Method in brief: as §1
# [18] = target: GlcNAc(b1-3)Gal(b1-4)GlcNAc(b1-3)[GlcNAc(b1-3)Gal(b1-4)GlcNAc(b1-3)]GalNAc
# Method in brief: as §1
# [19] = target: GlcNAc(b1-3)Gal(b1-4)GlcNAc(b1-6)[Gal(b1-3)]GalNAc
# Method in brief: as §1
# [20] = target: GlcNAc(b1-3)Gal(b1-4)GlcNAc(b1-6)[GlcNAc(b1-3)Gal(b1-3)]GalNAc
# Method in brief: as §1
# [21] = target: GlcNAc(b1-3)Gal(b1-4)GlcNAc(b1-6)[GlcNAc(b1-3)]Gal(b1-4)GlcNAc
# Method in brief: as §1
# GlcNAc(b1-3)GalNAc = target: GlcNAc(b1-3)GalNAc
# Method in brief: as §1
# GlcNAc(b1-3)Man = target: GlcNAc(b1-3)Man
# Method in brief: as §1
# [22] = target: GlcNAc(b1-3)[GlcNAc(b1-4)][GlcNAc(b1-6)]GlcNAc
# Method in brief: as §1
# [23] = target: GlcNAc(b1-3)[GlcNAc(b1-6)]Gal(b1-4)GlcNAc
# Method in brief: as §1
# [24] = target: GlcNAc(b1-3)[GlcNAc(b1-6)]GalNAc
# Method in brief: as §1
# [25] = target: GlcNAc(b1-4)Gal(b1-4)GlcNAc
# Method in brief: as §1
# GlcNAc(b1-4)GlcNAc = target: GlcNAc(b1-4)GlcNAc
# Method in brief: as §1
# [26] = target: GlcNAc(b1-4)GlcNAc(b1-4)GlcNAc
# Method in brief: as §1
# [27] = target: GlcNAc(b1-4)GlcNAc(b1-4)GlcNAc(b1-4)GlcNAc(b1-4)GlcNAc
# Method in brief: as §1
# [28] = target: GlcNAc(b1-4)GlcNAc(b1-4)GlcNAc(b1-4)GlcNAc(b1-4)GlcNAc(b1-4)GlcNAc
# Method in brief: as §1
# [29] = target: GlcNAc(b1-4)[GlcNAc(b1-6)]GalNAc
# Method in brief: as §1
# [30] = target: GlcNAc(b1-6)Gal(b1-4)GlcNAc
# Method in brief: as §1
# GlcNAc(b1-6)GalNAc = target: GlcNAc(b1-6)GalNAc
# Method in brief: as §1
# [31] = target: GlcNAc6S(b1-3)Gal(b1-4)GlcNAc
# Method in brief: as §1
# Kdn(a2-3)Gal(b1-3)GalNAc = target: Kdn(a2-3)Gal(b1-3)GalNAc
# Method in brief: as §1
# Kdn(a2-3)Gal(b1-3)GlcNAc = target: Kdn(a2-3)Gal(b1-3)GlcNAc
# Method in brief: as §1
# Kdn(a2-3)Gal(b1-4)Glc = target: Kdn(a2-3)Gal(b1-4)Glc
# Method in brief: as §1
# Kdn(a2-3)Gal(b1-4)GlcNAc = target: Kdn(a2-3)Gal(b1-4)GlcNAc
# Method in brief: as §1
# [32] = target: Kdn(a2-3)Gal(b1-4)[Fuc(a1-3)]GlcNAc
# Method in brief: as §1
# Kdn(a2-6)Gal(b1-4)GlcNAc = target: Kdn(a2-6)Gal(b1-4)GlcNAc
# Method in brief: as §1
# [33] = target: Man(a1-2)Man(a1-2)Man(a1-3)Man
# Method in brief: as §1
# [34] = target: Man(a1-2)Man(a1-2)Man(a1-6)[Man(a1-3)]Man
# Method in brief: as §1
# Man(a1-2)Man(a1-3)Man = target: Man(a1-2)Man(a1-3)Man
# Method in brief: as §1
binder,measurement,setting,value
"Clec12b (Mus musculus), Q149M0 (protein) MSDEVTYATLMLQDSARVRGNQDGNNLRKEGHPAQSSLWRGAALSLMTLCLVLVTGLVTLATMFLQVSNDINSDSEKLSQLQKSIHPQQDNLSESLNSSRKSLTEESLQSQISALLERQEQMATKLCKEFLIHASDHKCNPCPKTWQWYGNSCYYFSINEEKSWSDSRKDCIDKNATLVKIDSTEERDLLQSQLSLTFSFFWLGLSWNSSGRNWLWEDGSFPPPTLFSDKELASFNGSRDCAYFERGNIYASRCSAEIPWICEKTASLVKTEDLD",glycan array binding signal (z-score),[1],0.06
same,glycan array binding signal (z-score),GlcNAc(b1-3)Gal(b1-4)Glc,2.54
same,glycan array binding signal (z-score),[2],-0.633
same,glycan array binding signal (z-score),[3],-0.661
same,glycan array binding signal (z-score),[4],-0.412
same,glycan array binding signal (z-score),[5],1.09
same,glycan array binding signal (z-score),[6],-0.821
same,glycan array binding signal (z-score),[7],-0.27
same,glycan array binding signal (z-score),[8],-0.653
same,glycan array binding signal (z-score),[9],1.27
same,glycan array binding signal (z-score),[10],-0.433
same,glycan array binding signal (z-score),[11],-0.509
same,glycan array binding signal (z-score),[12],-0.301
same,glycan array binding signal (z-score),[13],-0.627
same,glycan array binding signal (z-score),[14],-0.545
same,glycan array binding signal (z-score),[15],-0.589
same,glycan array binding signal (z-score),[16],-0.622
same,glycan array binding signal (z-score),[17],-0.626
same,glycan array binding signal (z-score),[18],0.082
same,glycan array binding signal (z-score),[19],-0.645
same,glycan array binding signal (z-score),[20],-0.615
same,glycan array binding signal (z-score),[21],-0.621
same,glycan array binding signal (z-score),GlcNAc(b1-3)GalNAc,0.303
same,glycan array binding signal (z-score),GlcNAc(b1-3)Man,-0.352
same,glycan array binding signal (z-score),[22],-0.245
same,glycan array binding signal (z-score),[23],-0.689
same,glycan array binding signal (z-score),[24],-0.524
same,glycan array binding signal (z-score),[25],-0.264
same,glycan array binding signal (z-score),GlcNAc(b1-4)GlcNAc,0.029
same,glycan array binding signal (z-score),[26],0.034
same,glycan array binding signal (z-score),[27],-0.504
same,glycan array binding signal (z-score),[28],-0.433
same,glycan array binding signal (z-score),[29],0.025
same,glycan array binding signal (z-score),[30],-0.193
same,glycan array binding signal (z-score),GlcNAc(b1-6)GalNAc,-0.534
same,glycan array binding signal (z-score),[31],0.025
same,glycan array binding signal (z-score),Kdn(a2-3)Gal(b1-3)GalNAc,0.152
same,glycan array binding signal (z-score),Kdn(a2-3)Gal(b1-3)GlcNAc,-0.7
same,glycan array binding signal (z-score),Kdn(a2-3)Gal(b1-4)Glc,-0.755
same,glycan array binding signal (z-score),Kdn(a2-3)Gal(b1-4)GlcNAc,0.252
same,glycan array binding signal (z-score),[32],-0.268
same,glycan array binding signal (z-score),Kdn(a2-6)Gal(b1-4)GlcNAc,-0.651
same,glycan array binding signal (z-score),[33],-0.401
same,glycan array binding signal (z-score),[34],-0.463
same,glycan array binding signal (z-score),Man(a1-2)Man(a1-3)Man,-0.099

# An excerpt of these results, as tab-separated lines.
binder	measurement	setting	value
Clec12b (Mus musculus), Q149M0 (protein) MSDEVTYATLMLQDSARVRGNQDGNNLRKEGHPAQSSLWRGAALSLMTLCLVLVTGLVTLATMFLQVSNDINSDSEKLSQLQKSIHPQQDNLSESLNSSRKSLTEESLQSQISALLERQEQMATKLCKEFLIHASDHKCNPCPKTWQWYGNSCYYFSINEEKSWSDSRKDCIDKNATLVKIDSTEERDLLQSQLSLTFSFFWLGLSWNSSGRNWLWEDGSFPPPTLFSDKELASFNGSRDCAYFERGNIYASRCSAEIPWICEKTASLVKTEDLD	glycan array binding signal (z-score)	[7]	-0.27
same	glycan array binding signal (z-score)	[8]	-0.653
